{"source": "the supplement of paper PMC8728848", "assay_in_all_cases": "glycan array binding signal (z-score within array); higher = stronger binding", "details_in_all_cases": "glycan notation: IUPAC condensed, linker removed", "key": {"[1]": {"target": "Gal(b1-4)GlcNAc(b1-2)[Gal(b1-4)GlcNAc(b1-6)]Man(a1-6)[GlcNAc(b1-4)][Gal(b1-4)GlcNAc(b1-2)Man(a1-3)]Man(b1-4)GlcNAc(b1-4)GlcNAc", "how_it_was_run": "(§1)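 Negative Z-scores can be read as non-binding. The Z-score is calculated within each array and then averaged across arrays of one protein sequence at different concentrations or buffers and across linkers. Arrays, 3228 in all, were curated from the Consortium for Functional Glycomics database and kept only where the protein sequence was available.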"}, "[2]": {"target": "Gal(b1-4)GlcNAc(b1-2)[Gal(b1-4)GlcNAc(b1-6)]Man(a1-6)[GlcNAc(b1-4)][Gal(b1-4)GlcNAc(b1-2)[Gal(b1-4)GlcNAc(b1-4)]Man(a1-3)]Man(b1-4)GlcNAc(b1-4)[Fuc(a1-6)]GlcNAc", "how_it_was_run": "as §1"}, "[3]": {"target": "Gal(b1-4)GlcNAc(b1-3)Gal(b1-3)GalNAc", "how_it_was_run": "as §1"}, "[4]": {"target": "Gal(b1-4)GlcNAc(b1-3)Gal(b1-3)GlcNAc", "how_it_was_run": "as §1"}, "[5]": {"target": "Gal(b1-4)GlcNAc(b1-3)Gal(b1-4)Glc", "how_it_was_run": "as §1"}, "[6]": {"target": "Gal(b1-4)GlcNAc(b1-3)Gal(b1-4)GlcNAc", "how_it_was_run": "as §1"}, "[7]": {"target": "Gal(b1-4)GlcNAc(b1-3)Gal(b1-4)GlcNAc(b1-2)Man(a1-3)[Gal(b1-4)GlcNAc(b1-3)Gal(b1-4)GlcNAc(b1-2)Man(a1-6)]Man(b1-4)GlcNAc(b1-4)GlcNAc", "how_it_was_run": "as §1"}, "[8]": {"target": "Gal(b1-4)GlcNAc(b1-3)Gal(b1-4)GlcNAc(b1-2)Man(a1-3)[Gal(b1-4)GlcNAc(b1-3)Gal(b1-4)GlcNAc(b1-2)Man(a1-6)]Man(b1-4)GlcNAc(b1-4)[Fuc(a1-6)]GlcNAc", "how_it_was_run": "as §1"}, "[9]": {"target": "Gal(b1-4)GlcNAc(b1-3)Gal(b1-4)GlcNAc(b1-2)[Gal(b1-4)GlcNAc(b1-3)Gal(b1-4)GlcNAc(b1-6)]Man(a1-6)[Gal(b1-4)GlcNAc(b1-3)Gal(b1-4)GlcNAc(b1-2)Man(a1-3)]Man(b1-4)GlcNAc(b1-4)GlcNAc", "how_it_was_run": "as §1"}, "[10]": {"target": "Gal(b1-4)GlcNAc(b1-3)Gal(b1-4)GlcNAc(b1-2)[Gal(b1-4)GlcNAc(b1-3)Gal(b1-4)GlcNAc(b1-6)]Man(a1-6)[Gal(b1-4)GlcNAc(b1-3)Gal(b1-4)GlcNAc(b1-2)Man(a1-3)]Man(b1-4)GlcNAc(b1-4)[Fuc(a1-6)]GlcNAc", "how_it_was_run": "as §1"}, "[11]": {"target": "Gal(b1-4)GlcNAc(b1-3)Gal(b1-4)GlcNAc(b1-3)Gal(b1-4)GlcNAc", "how_it_was_run": "as §1"}, "[12]": {"target": "Gal(b1-4)GlcNAc(b1-3)Gal(b1-4)GlcNAc(b1-3)Gal(b1-4)GlcNAc(b1-2)Man(a1-3)[Gal(b1-4)GlcNAc(b1-3)Gal(b1-4)GlcNAc(b1-3)Gal(b1-4)GlcNAc(b1-2)Man(a1-6)]Man(b1-4)GlcNAc(b1-4)GlcNAc", "how_it_was_run": "as §1"}, "[13]": {"target": "Gal(b1-4)GlcNAc(b1-3)Gal(b1-4)GlcNAc(b1-3)Gal(b1-4)GlcNAc(b1-2)Man(a1-3)[Gal(b1-4)GlcNAc(b1-3)Gal(b1-4)GlcNAc(b1-3)Gal(b1-4)GlcNAc(b1-2)Man(a1-6)]Man(b1-4)GlcNAc(b1-4)[Fuc(a1-6)]GlcNAc", "how_it_was_run": "as §1"}, "[14]": {"target": "Gal(b1-4)GlcNAc(b1-3)Gal(b1-4)GlcNAc(b1-3)Gal(b1-4)GlcNAc(b1-2)[Gal(b1-4)GlcNAc(b1-3)Gal(b1-4)GlcNAc(b1-3)Gal(b1-4)GlcNAc(b1-6)]Man(a1-6)[Gal(b1-4)GlcNAc(b1-3)Gal(b1-4)GlcNAc(b1-3)Gal(b1-4)GlcNAc(b1-2)Man(a1-3)]Man(b1-4)GlcNAc(b1-4)[Fuc(a1-6)]GlcNAc", "how_it_was_run": "as §1"}, "[15]": {"target": "Gal(b1-4)GlcNAc(b1-3)Gal(b1-4)GlcNAc(b1-3)Gal(b1-4)GlcNAc(b1-3)Gal(b1-4)GlcNAc(b1-2)Man(a1-3)[Gal(b1-4)GlcNAc(b1-3)Gal(b1-4)GlcNAc(b1-3)Gal(b1-4)GlcNAc(b1-3)Gal(b1-4)GlcNAc(b1-2)Man(a1-6)]Man(b1-4)GlcNAc(b1-4)GlcNAc", "how_it_was_run": "as §1"}, "[16]": {"target": "Gal(b1-4)GlcNAc(b1-3)Gal(b1-4)GlcNAc(b1-3)Gal(b1-4)GlcNAc(b1-3)Gal(b1-4)GlcNAc(b1-2)Man(a1-3)[Gal(b1-4)GlcNAc(b1-3)Gal(b1-4)GlcNAc(b1-3)Gal(b1-4)GlcNAc(b1-3)Gal(b1-4)GlcNAc(b1-2)Man(a1-6)]Man(b1-4)GlcNAc(b1-4)[Fuc(a1-6)]GlcNAc", "how_it_was_run": "as §1"}, "[17]": {"target": "Gal(b1-4)GlcNAc(b1-3)Gal(b1-4)GlcNAc(b1-3)Gal(b1-4)GlcNAc(b1-3)Gal(b1-4)GlcNAc(b1-2)[Gal(b1-4)GlcNAc(b1-3)Gal(b1-4)GlcNAc(b1-3)Gal(b1-4)GlcNAc(b1-3)Gal(b1-4)GlcNAc(b1-6)]Man(a1-6)[Gal(b1-4)GlcNAc(b1-3)Gal(b1-4)GlcNAc(b1-3)Gal(b1-4)GlcNAc(b1-3)Gal(b1-4)GlcNAc(b1-2)Man(a1-3)]Man(b1-4)GlcNAc(b1-4)[Fuc(a1-6)]GlcNAc", "how_it_was_run": "as §1"}, "[18]": {"target": "Gal(b1-4)GlcNAc(b1-3)Gal(b1-4)GlcNAc(b1-3)Gal(b1-4)GlcNAc(b1-3)Gal(b1-4)GlcNAc(b1-3)Gal(b1-4)GlcNAc(b1-2)Man(a1-3)[Gal(b1-4)GlcNAc(b1-3)Gal(b1-4)GlcNAc(b1-3)Gal(b1-4)GlcNAc(b1-3)Gal(b1-4)GlcNAc(b1-3)Gal(b1-4)GlcNAc(b1-2)Man(a1-6)]Man(b1-4)GlcNAc(b1-4)GlcNAc", "how_it_was_run": "as §1"}, "[19]": {"target": "Gal(b1-4)GlcNAc(b1-3)Gal(b1-4)GlcNAc(b1-3)Gal(b1-4)GlcNAc(b1-3)Gal(b1-4)GlcNAc(b1-3)Gal(b1-4)GlcNAc(b1-2)Man(a1-3)[Gal(b1-4)GlcNAc(b1-3)Gal(b1-4)GlcNAc(b1-3)Gal(b1-4)GlcNAc(b1-3)Gal(b1-4)GlcNAc(b1-3)Gal(b1-4)GlcNAc(b1-2)Man(a1-6)]Man(b1-4)GlcNAc(b1-4)[Fuc(a1-6)]GlcNAc", "how_it_was_run": "as §1"}, "[20]": {"target": "Gal(b1-4)GlcNAc(b1-3)Gal(b1-4)GlcNAc(b1-3)Gal(b1-4)GlcNAc(b1-3)Gal(b1-4)GlcNAc(b1-3)Gal(b1-4)GlcNAc(b1-2)[Gal(b1-4)GlcNAc(b1-3)Gal(b1-4)GlcNAc(b1-3)Gal(b1-4)GlcNAc(b1-3)Gal(b1-4)GlcNAc(b1-3)Gal(b1-4)GlcNAc(b1-6)]Man(a1-6)[Gal(b1-4)GlcNAc(b1-3)Gal(b1-4)GlcNAc(b1-3)Gal(b1-4)GlcNAc(b1-3)Gal(b1-4)GlcNAc(b1-3)Gal(b1-4)GlcNAc(b1-2)Man(a1-3)]Man(b1-4)GlcNAc(b1-4)[Fuc(a1-6)]GlcNAc", "how_it_was_run": "as §1"}, "[21]": {"target": "Gal(b1-4)GlcNAc(b1-3)Gal(b1-4)GlcNAc(b1-3)Gal(b1-4)GlcNAc(b1-3)Gal(b1-4)GlcNAc(b1-3)Gal(b1-4)GlcNAc(b1-3)Gal(b1-4)GlcNAc(b1-2)Man(a1-3)[Gal(b1-4)GlcNAc(b1-3)Gal(b1-4)GlcNAc(b1-3)Gal(b1-4)GlcNAc(b1-3)Gal(b1-4)GlcNAc(b1-3)Gal(b1-4)GlcNAc(b1-3)Gal(b1-4)GlcNAc(b1-2)Man(a1-6)]Man(b1-4)GlcNAc(b1-4)GlcNAc", "how_it_was_run": "as §1"}, "[22]": {"target": "Gal(b1-4)GlcNAc(b1-3)Gal(b1-4)GlcNAc(b1-3)GalNAc", "how_it_was_run": "as §1"}, "[23]": {"target": "Gal(b1-4)GlcNAc(b1-3)Gal(b1-4)GlcNAc(b1-3)[Gal(b1-4)GlcNAc(b1-3)Gal(b1-4)GlcNAc(b1-6)]GalNAc", "how_it_was_run": "as §1"}}, "note": "The list shows a part of the results.", "data": [{"binder": "RobpsCRA (Robinia pseudoacacia) (protein) IKGGYWYSGSGLAVSDINPSHFTHLFCAFADLDPNTNKLTISSSNAAAFSTFTQTVRAKNPSVKTLLSIGGGGGRALAAVFANMASQASRRKSFIDSSIQLARRNNFHGLDLDWEYPSSDIDKTNFASLIREWRAAVATESSTSGTPALLLSAAVGGSDQITPLKYYPGEAIANNLDWVNVMTYDLYTSDSYPTLTQPPAPLFYPRGIFSADEGITKWIQSGVPESKLALGLPFYGFKWRLSDPNNHGLFAPATQGLGAVKYKDIVNTGGQVEFDSTYVTNYCFKGTDWYGYDDTQSISAKVAYAKQRGLFGYFAWHIEQDSNWALS", "values": [{"measurement": "glycan array binding signal (z-score)", "setting": "[1]", "value": -0.363}, {"measurement": "glycan array binding signal (z-score)", "setting": "[2]", "value": 0.189}, {"measurement": "glycan array binding signal (z-score)", "setting": "[3]", "value": -0.603}, {"measurement": "glycan array binding signal (z-score)", "setting": "[4]", "value": -0.448}, {"measurement": "glycan array binding signal (z-score)", "setting": "[5]", "value": -0.529}, {"measurement": "glycan array binding signal (z-score)", "setting": "[6]", "value": -0.031}, {"measurement": "glycan array binding signal (z-score)", "setting": "[7]", "value": 1.01}, {"measurement": "glycan array binding signal (z-score)", "setting": "[8]", "value": 0.024}, {"measurement": "glycan array binding signal (z-score)", "setting": "[9]", "value": 0.083}, {"measurement": "glycan array binding signal (z-score)", "setting": "[10]", "value": 0.741}, {"measurement": "glycan array binding signal (z-score)", "setting": "[11]", "value": 0.868}, {"measurement": "glycan array binding signal (z-score)", "setting": "[12]", "value": -0.055}, {"measurement": "glycan array binding signal (z-score)", "setting": "[13]", "value": 0.688}, {"measurement": "glycan array binding signal (z-score)", "setting": "[14]", "value": 0.384}, {"measurement": "glycan array binding signal (z-score)", "setting": "[15]", "value": 0.541}, {"measurement": "glycan array binding signal (z-score)", "setting": "[16]", "value": -0.68}, {"measurement": "glycan array binding signal (z-score)", "setting": "[17]", "value": 0.355}, {"measurement": "glycan array binding signal (z-score)", "setting": "[18]", "value": -0.025}, {"measurement": "glycan array binding signal (z-score)", "setting": "[19]", "value": 0.466}, {"measurement": "glycan array binding signal (z-score)", "setting": "[20]", "value": 0.64}, {"measurement": "glycan array binding signal (z-score)", "setting": "[21]", "value": 2.18}, {"measurement": "glycan array binding signal (z-score)", "setting": "[22]", "value": 0.592}, {"measurement": "glycan array binding signal (z-score)", "setting": "[23]", "value": 0.145}]}]}
